In publication PMC8195513 one finds binding data, which are given here for one substance.

By UniProt entry, the sequences of proteins in these tests, tags left out. Where a name states a change or a piece, a line headed by the entry shows the natural chain unless it says otherwise.
UniProt Q9C6B8: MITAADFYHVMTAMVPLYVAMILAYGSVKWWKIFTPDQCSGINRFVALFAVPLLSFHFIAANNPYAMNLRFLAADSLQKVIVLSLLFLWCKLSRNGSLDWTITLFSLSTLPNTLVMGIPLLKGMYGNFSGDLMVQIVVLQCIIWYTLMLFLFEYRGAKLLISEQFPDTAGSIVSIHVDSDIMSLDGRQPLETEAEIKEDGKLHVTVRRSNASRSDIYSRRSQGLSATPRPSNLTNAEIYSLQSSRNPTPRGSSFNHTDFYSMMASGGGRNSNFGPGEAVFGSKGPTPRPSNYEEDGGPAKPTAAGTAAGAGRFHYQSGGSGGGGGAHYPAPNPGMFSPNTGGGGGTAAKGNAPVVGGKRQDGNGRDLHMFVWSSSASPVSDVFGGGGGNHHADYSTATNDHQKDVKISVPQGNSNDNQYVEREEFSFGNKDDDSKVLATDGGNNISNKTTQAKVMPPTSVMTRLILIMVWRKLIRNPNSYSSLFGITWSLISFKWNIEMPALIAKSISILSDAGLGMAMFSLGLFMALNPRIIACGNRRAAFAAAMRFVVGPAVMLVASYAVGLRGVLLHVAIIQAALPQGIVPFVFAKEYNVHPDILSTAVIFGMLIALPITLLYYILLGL
UniProt O23140: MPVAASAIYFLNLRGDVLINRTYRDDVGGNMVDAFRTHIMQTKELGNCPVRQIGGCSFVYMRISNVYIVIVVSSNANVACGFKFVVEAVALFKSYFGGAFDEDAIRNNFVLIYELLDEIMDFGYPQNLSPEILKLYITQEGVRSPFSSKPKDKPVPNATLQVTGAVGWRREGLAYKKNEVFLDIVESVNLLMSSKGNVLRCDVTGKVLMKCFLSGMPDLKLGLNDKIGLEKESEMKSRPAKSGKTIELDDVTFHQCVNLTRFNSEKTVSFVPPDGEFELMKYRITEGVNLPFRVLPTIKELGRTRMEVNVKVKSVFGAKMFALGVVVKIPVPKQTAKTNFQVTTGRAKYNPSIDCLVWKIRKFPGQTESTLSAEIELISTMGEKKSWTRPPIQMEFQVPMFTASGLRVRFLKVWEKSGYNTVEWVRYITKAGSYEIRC

These are yes or no findings as the source states them, for the method shown. A result given as binding can be weak or reduced; the word gives no strength.

In this assay the target is GST-PIN1CL (cytosolic loop of PIN1 fused to GST) (Arabidopsis thaliana) (UniProt Q9C6B8). Kind of assay: pull-down; GST-PIN1CL on glutathione sepharose beads; purified His6-RBD-µ2-adaptin pre-incubated 1 h at RT without or with 10 µM NAA, 2,4-D, 2-NAA or BA, then 2 h at RT with the beads; binding buffer 100 mM Tris-HCl pH 7.5, 5 mM EDTA, 0.1% Triton X-100; Western blot with a His antibody; both purified. (Immunoblotting shows a protein as a band on a membrane.)

In the case of “(His)6×-RBD-µ2-adaptin (receptor binding domain of Arabidopsis µ2-adaptin) (from UniProt O23140) (domain or fragment)”, the binding result is listed as “binds”.
